# The supplement of paper PMC12578635
# This is one part of the list. No stated cut-off is given here; in the data, active = 150% or more and inactive = the rest. Many values rest on one well or one pass, so single values are uncertain.
# Test system: Staphylococcus aureus JE2-lux inside RAW 264.7 macrophages
# Assay: intracellular bacterial bioluminescence relative to DMSO vehicle; higher = higher intracellular bacterial metabolic activity
# Conditions: 10 µM; treatment time 4 h; gentamicin 50 µg/ml
row,SMILES,intracellular bacterial bioluminescence
1,COc1ccc(OC)c(NS(=O)(=O)c2ccc3[nH]c(=O)[nH]c3c2)c1,inactive: 112%
2,CCN1CCN(c2nc(N3CCN(C(=O)c4ccco4)CC3)nc3c2cnn3C)CC1,inactive: 130%
3,Cc1ccc(C(=O)Nc2ccccc2-c2nc3ccccc3[nH]c2=O)cc1[N+](=O)[O-],inactive: 60.2%
4,COc1ccc(OC)c2[nH]c(=O)c(CCNC(=O)c3ccc(Cl)c([N+](=O)[O-])c3)cc12,inactive: 97%
5,CCOC(=O)CCc1c(C)c(C#N)c2nc3ccccc3n2c1-n1cnc2ccccc21,inactive: 101%
6,O=C(NC1CCN(Cc2ccccc2)CC1)c1cnc(N2CCOCC2)c2ccccc12,inactive: 118%
7,CCOc1ccc2c(c1)cc(C1OCCO1)c1nn(C)c(=O)n12,inactive: 95%
8,CCOc1ccc2ncc(C(=O)NCc3ccc(F)cc3)c(O)c2c1,inactive: 59.6%
9,COCCCNc1c2c3c(cccc3[nH]c1=O)C(=O)c1ccccc1-2,inactive: 97.2%
10,CC(=O)Nc1ccc(NC(=O)c2cnc3c(c(C)nn3-c3ccccc3)c2Cl)cc1,inactive: 122%
11,C=CCOc1cc(C2CC(=O)Nc3c2c(C)nn3-c2nncc(-c3ccc(C)cc3)n2)ccc1OC (configuration not stated),inactive: 101%
12,COc1cc(C)c(-c2nc(NC(=O)C3(C)CCCO3)sc2C)cc1C (configuration not stated),inactive: 102%
13,N#Cc1c(NC(=O)CC2SC(=N)NC2=O)sc2c1CCCC2 (configuration not stated),inactive: 114%
14,Cc1csc2nc(O)c(C(=O)NCCCN3CCOCC3)c(=O)n12,inactive: 127%
15,CCc1ccc(-c2noc3c(=O)n(CCC(=O)NCCCN4CCCC4=O)cnc23)cc1,inactive: 90.7%
16,CCN(CC)c1cc(CNC(=O)Nc2ccc3c(c2)OCO3)ccn1,inactive: 63.6%
17,O=C(Cn1c2c(c(=O)n3nc(-c4ccccc4)nc13)CCC2)NCC1CCCO1 (configuration not stated),inactive: 96.5%
18,O=C(COc1ncnc2onc(-c3ccccc3)c12)Nc1ccc(Br)cc1F,inactive: 41.6%
19,COc1cc(NC(=O)CSc2nnc(-c3ccc(NS(=O)(=O)c4ccccc4)cc3)o2)cc(OC)c1,inactive: 62.6%

# Among those listed so far, 5 have an aryl methoxy group:
row,SMILES,intracellular bacterial bioluminescence
1,COc1ccc(OC)c(NS(=O)(=O)c2ccc3[nH]c(=O)[nH]c3c2)c1,inactive: 112%
4,COc1ccc(OC)c2[nH]c(=O)c(CCNC(=O)c3ccc(Cl)c([N+](=O)[O-])c3)cc12,inactive: 97%
11,C=CCOc1cc(C2CC(=O)Nc3c2c(C)nn3-c2nncc(-c3ccc(C)cc3)n2)ccc1OC (configuration not stated),inactive: 101%
12,COc1cc(C)c(-c2nc(NC(=O)C3(C)CCCO3)sc2C)cc1C (configuration not stated),inactive: 102%
19,COc1cc(NC(=O)CSc2nnc(-c3ccc(NS(=O)(=O)c4ccccc4)cc3)o2)cc(OC)c1,inactive: 62.6%

# The list continues:

row,SMILES,intracellular bacterial bioluminescence
1,CCOC(=O)c1sc(NC(=O)c2ccc(Cl)s2)c(SC#N)c1C,inactive: 90.7%
2,COc1ccc(C(=O)CSc2cc(C)[nH]c(=O)n2)cc1,inactive: 120%
3,CCCCNS(=O)(=O)c1ccc2[nH]c(=O)cc(C)c2c1,inactive: 111%
4,Cc1ccn2c(=O)nc(SCC(=O)c3ccccc3)nc2c1,inactive: 111%
5,Cc1ccc2cc(CCNC(=O)c3c(F)cccc3Cl)c(=O)[nH]c2c1C,inactive: 83.8%
6,CCOC(=O)N1CCC2(CC1)Oc1c(OC)cccc1C1CC(c3cc(C)ccc3O)=NN12 (configuration not stated),inactive: 144%
7,COCCNc1cc(C)nc2cc(-c3cc(OC)cc(OC)c3)nn12,inactive: 101%
8,Cc1cc(NC(=O)c2ccccc2C(F)(F)F)n(-c2ncnc3c2cnn3-c2cccc(Cl)c2)n1,inactive: 119%
9,Cc1ccc2nc(NCc3ccccc3)c(/C=N/Cc3cccnc3)c(=O)n2c1,inactive: 91.8%
10,O=C(COc1ncnc2ccccc12)NC1(CN2CCCC2)CCCCC1,inactive: 102%
11,O=C(CSc1nc(=O)[nH]c2c1CCCC2)NCc1ccc2c(c1)OCO2,inactive: 139%
12,CC(SC1=Nc2ccccc2C2=NC(c3ccccc3)C(=O)N12)C(=O)Nc1ccc2c(c1)OCCO2 (configuration not stated),inactive: 91%
13,COc1ccc(CCNC(=O)Cn2nc(-c3ccc(C)o3)cc(N)c2=O)cc1OC,inactive: 58.2%
14,COc1ccc2cc(C)c3nn(CCNC(=O)c4noc5c4CCCC5)c(=O)n3c2c1,inactive: 79.5%
15,N#Cc1c2c(c(NCCCO)n3c1nc1ccccc13)CCC2,inactive: 120%
16,COC(=O)CSc1nc(-c2ccc(OC)cc2)nc2c1Cc1cc(C)ccc1O2,inactive: 89.5%
17,C=CCN(C(=O)C(C)Sc1nc2ncccc2o1)c1ccccc1 (configuration not stated),inactive: 100%
18,CCN(c1ccccc1)S(=O)(=O)c1ccc(C(=O)Nc2ccc3c(c2)C(=O)N(C)C3=O)cc1,inactive: 92.6%
19,COc1ccc(OC)c(NS(=O)(=O)c2c(C)sc(C)c2-c2cc(C(F)(F)F)on2)c1,inactive: 90.2%

row,SMILES,intracellular bacterial bioluminescence
1,Cc1nc(OCC(=O)NC2CCCc3ccccc32)c2c(-c3cccc(F)c3)noc2n1 (configuration not stated),inactive: 51.3%
2,COc1cc(Cn2nc3n(C)c4ccccc4n3c2=O)cc(OC)c1OC,inactive: 90.6%
3,COc1ccccc1OCCN(C)C(=O)Cn1cnc2sc(C)cc2c1=O,inactive: 49.3%
4,CC(Oc1cc2oc(=O)c3c(c2cc1Cl)CCC3)C(=O)O (configuration not stated),inactive: 116%
5,CCn1nnc2cc(-c3noc(C4CC(=O)N(c5ccccc5)C4)n3)ccc21 (configuration not stated),inactive: 81.8%
6,Cn1ncc2c(NCc3ccc(F)cc3)nc(N3CCOCC3)nc21,active: 166%
7,COCCn1/c(=N/C(=O)c2cc3ccccc3oc2=O)sc2cc(NC(C)=O)ccc21,inactive: 103%
8,CCOC(=O)CC1C(=O)NCCN1Cc1ccc(OC)c(OC)c1 (configuration not stated),inactive: 127%
9,Cc1c(-c2ccccc2)n[nH]c1C(=O)Nc1ccc(Oc2cccnc2)cc1,inactive: 21.5%
10,Cc1nnc2ccc(C(=O)NCc3ccc(F)cc3)cn12,inactive: 107%
11,Cc1cc(C)c2sc(NNC(=O)c3ccc(S(=O)(=O)N4CCOCC4)cc3)nc2c1,inactive: 59.8%
12,CCCCn1c2c(c(=O)[nH]c1=O)C(c1cccc(F)c1)C1=C(COC1=O)N2 (configuration not stated),inactive: 109%
13,Nc1nc(SCc2ccc3c(c2)OCO3)ns1,inactive: 72.6%
14,COc1ccccc1-c1nc(SCC(=O)NCC2CCCO2)c2c(=O)n(C)c(=O)n(C)c2n1 (configuration not stated),inactive: 103%
15,COc1ccc(NC(=O)c2cccc3nc4ccccc4nc23)c(OC)c1,inactive: 75.7%
16,CN1C(=O)NC(c2cccc(F)c2)C(C(=O)c2cccs2)C1(O)C(F)(F)F (configuration not stated),inactive: 91.4%
17,Oc1ccc(C2=NN3C(C2)c2cc(Br)ccc2OC3c2ccncc2)c(O)c1 (configuration not stated),inactive: 114%
18,Cc1ccc(Cl)c2sc(N3CCN(C(=O)c4cccc([N+](=O)[O-])c4)CC3)nc12,inactive: 140%
19,CC(=O)N1c2ccc(NC(=O)CSc3nccc4ccccc34)cc2CC1C (configuration not stated),inactive: 47.9%
